For some assays here: Weaker means in comparison with the reference protein, sequence or condition of that experiment. For some assays here: The exact form of at least one protein or probe is not confirmed. For some assays here: Whether high values mean tight binding is not given here for every scale.

The chains behind the UniProt entries cited, without tags or fusion partners. Where a name states a change or a piece, a line headed by the entry shows the natural chain unless it says otherwise. Residues count along the entry.
UniProt P23909: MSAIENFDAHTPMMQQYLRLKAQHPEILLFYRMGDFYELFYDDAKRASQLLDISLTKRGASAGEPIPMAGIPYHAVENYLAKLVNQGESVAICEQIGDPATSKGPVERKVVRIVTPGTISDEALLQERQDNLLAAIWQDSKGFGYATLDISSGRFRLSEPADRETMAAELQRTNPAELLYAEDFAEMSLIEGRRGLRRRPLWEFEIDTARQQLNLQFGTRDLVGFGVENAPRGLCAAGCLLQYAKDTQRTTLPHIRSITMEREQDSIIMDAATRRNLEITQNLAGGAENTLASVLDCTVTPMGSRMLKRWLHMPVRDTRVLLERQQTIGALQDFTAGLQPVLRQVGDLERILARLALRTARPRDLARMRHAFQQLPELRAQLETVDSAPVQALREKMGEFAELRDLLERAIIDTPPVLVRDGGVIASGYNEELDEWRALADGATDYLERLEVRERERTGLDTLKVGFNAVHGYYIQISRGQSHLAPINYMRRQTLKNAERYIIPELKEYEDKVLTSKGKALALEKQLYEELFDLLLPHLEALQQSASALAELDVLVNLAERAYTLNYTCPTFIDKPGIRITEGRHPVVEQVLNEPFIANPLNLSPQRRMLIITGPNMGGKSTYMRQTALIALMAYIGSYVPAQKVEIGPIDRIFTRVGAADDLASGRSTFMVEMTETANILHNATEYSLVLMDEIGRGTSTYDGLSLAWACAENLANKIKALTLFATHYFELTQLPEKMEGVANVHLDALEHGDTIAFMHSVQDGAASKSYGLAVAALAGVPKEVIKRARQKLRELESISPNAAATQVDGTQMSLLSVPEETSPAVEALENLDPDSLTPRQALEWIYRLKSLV
UniProt Q56239, 2-819: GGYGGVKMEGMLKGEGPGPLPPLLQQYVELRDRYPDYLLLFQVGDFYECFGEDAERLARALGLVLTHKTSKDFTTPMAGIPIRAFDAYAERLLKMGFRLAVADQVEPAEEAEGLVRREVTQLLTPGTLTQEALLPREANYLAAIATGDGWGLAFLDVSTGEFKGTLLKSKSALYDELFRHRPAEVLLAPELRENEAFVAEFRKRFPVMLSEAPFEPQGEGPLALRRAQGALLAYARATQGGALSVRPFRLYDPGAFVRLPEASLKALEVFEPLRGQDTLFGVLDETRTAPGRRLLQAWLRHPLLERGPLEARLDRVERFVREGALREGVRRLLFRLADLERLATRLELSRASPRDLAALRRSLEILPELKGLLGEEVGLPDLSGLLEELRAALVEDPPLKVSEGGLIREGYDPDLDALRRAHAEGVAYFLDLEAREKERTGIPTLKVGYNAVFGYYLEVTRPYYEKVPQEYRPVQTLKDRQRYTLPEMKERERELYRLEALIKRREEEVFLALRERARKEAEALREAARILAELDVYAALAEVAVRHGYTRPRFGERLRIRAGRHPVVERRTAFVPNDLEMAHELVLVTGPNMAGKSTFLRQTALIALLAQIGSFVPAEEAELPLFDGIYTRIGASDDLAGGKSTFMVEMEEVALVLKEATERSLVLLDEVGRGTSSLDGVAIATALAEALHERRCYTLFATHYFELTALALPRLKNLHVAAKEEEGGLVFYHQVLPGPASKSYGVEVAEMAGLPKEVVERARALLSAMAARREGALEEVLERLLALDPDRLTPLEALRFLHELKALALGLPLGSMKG
UniProt Q56215: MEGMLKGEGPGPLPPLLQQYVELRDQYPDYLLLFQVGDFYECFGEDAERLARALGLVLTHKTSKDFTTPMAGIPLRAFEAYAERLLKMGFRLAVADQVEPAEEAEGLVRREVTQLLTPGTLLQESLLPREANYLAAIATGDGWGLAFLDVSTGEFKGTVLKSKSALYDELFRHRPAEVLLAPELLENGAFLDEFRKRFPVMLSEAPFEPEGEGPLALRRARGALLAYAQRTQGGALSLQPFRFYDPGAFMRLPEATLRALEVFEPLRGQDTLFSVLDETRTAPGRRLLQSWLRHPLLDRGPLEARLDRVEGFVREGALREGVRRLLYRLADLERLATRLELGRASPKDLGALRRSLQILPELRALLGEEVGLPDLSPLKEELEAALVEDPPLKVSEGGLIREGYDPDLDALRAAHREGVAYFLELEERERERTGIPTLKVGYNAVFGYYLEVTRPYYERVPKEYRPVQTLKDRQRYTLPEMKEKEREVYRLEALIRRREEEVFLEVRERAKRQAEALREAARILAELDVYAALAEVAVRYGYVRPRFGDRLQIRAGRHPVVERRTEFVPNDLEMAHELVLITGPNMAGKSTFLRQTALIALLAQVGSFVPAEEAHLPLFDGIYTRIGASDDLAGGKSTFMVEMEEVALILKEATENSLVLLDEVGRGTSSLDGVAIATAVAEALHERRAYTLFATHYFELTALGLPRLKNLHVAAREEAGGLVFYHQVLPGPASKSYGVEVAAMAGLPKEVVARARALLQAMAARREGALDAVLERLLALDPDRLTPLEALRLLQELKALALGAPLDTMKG

Data set [1] has as its target MutS (Cy5-labeled) (Escherichia coli) (UniProt P23909). Briefly: EMSA. As to conditions: 150 mM KCl, 10 mM MgCl2; purified recombinant protein; label: 5'-biotin (SPR), 5'-32P (EMSA).
The target of data set [2] is MBP-MutS fusion (Cy5-labeled) (Escherichia coli) (UniProt P23909). Briefly: SPR. The conditions noted are these: protein details: N-terminal MBP (pMALc2x-mutS plasmid SEQ:9), label: 5'-biotin, variant of sense(36)/AT.
In data set [3] the target is MutS (Cy5-labeled) (Thermus thermophilus) (UniProt Q56239). Briefly: binding assay. The conditions noted are these: hydrogel chip fluorescence, purified recombinant protein, protein details: Cy5, label: 5'-biotin, 5'-Cy3.
Data set [4] deals with MutS (Cy5-labeled) (Thermus aquaticus) (UniProt Q56215). Briefly: binding assay. As to conditions: hydrogel chip fluorescence; purified recombinant protein; protein details: Cy5, Epicentre; label: 5'-biotin, 5'-Cy3; variant of sense/AT perfect duplex.
For data set [5], the target named is MBP-MutS fusion (Cy5-labeled) (Escherichia coli) (UniProt P23909). Briefly: binding assay. As to conditions: hydrogel chip fluorescence; purified recombinant protein; protein details: N-terminal MBP (pMALc2x-mutS plasmid SEQ:9), Cy5; label: 5'-biotin, 5'-Cy3; variant of sense/AT perfect duplex.
Data set [6] has as its target MutS (Cy5-labeled) (Escherichia coli) (UniProt P23909). In words: binding assay. The conditions noted are these: hydrogel chip fluorescence; purified recombinant protein; label: 5'-biotin, 5'-Cy3; variant of sense/AT perfect duplex.
The mark [7] stands for this setting: text says bound better than AT, value is lower, purified recombinant protein.
Setting [8] is: detector saturated, variant of sense/AT perfect ….

As for “AAGCATACGGAAGTTAAAGTGCGGATCATCTCTAGC / TGGCTAGAGATGATCCGCACTTTAACTTCCGTATGC [sense(36)/AT]”, the binding result in data set [1] is “binds more weakly”.

As for “AAGCATACGGAAGTTAAAGTGCGGATCATCTCTAGC / TGGCTAGAGATGATCCGCACTTTTAACTTCCGTATGC [sense(36)/ins+1T]”, the binding signal in data set [2] (setting [7]) came out at 127 RU.

“AAGCATACGGAAGTTAAAGTGCGGATCATCTCTAGC / TGGCTAGAGATGATCCGCACTTTTTAACTTCCGTATGC [sense(36)/ins+2T]”: the binding signal in data set [2] (50 mM KCl, 5 mM MgCl2, purified recombinant protein) came to 1960 RU.

As to “AAGCATACGGAAGTTAAAGTGCGGATCATCTCTAGC / TGGCTAGAGATGATCCGCCCTTTAACTTCCGTATGC [sense(36)/CT]”, the binding signal in data set [2] (setting [7]) amounted to 73.6 RU.

Consider “AAGCATACGGAAGTTAAAGTGCGGATCATCTCTAGC / TGGCTAGAGATGATCCGCTCTTTAACTTCCGTATGC [sense(36)/TT]”, for which the binding signal in data set [2] (setting [7]) is 71.1 RU.

Turning to “AAGCATACGGAAGTTAAAGTGCGGATCATCTCTAGCCA / TGGCTAGAGATGATCCGCACTTTTAACTTCCGTATGC [sense/ins+1T]”, the binding signal in data set [3] (setting [8]) was 7.02 fold vs AT; in data set [4] it was 43.4 fold vs AT; in data set [5], 3 fold vs AT; in data set [6], 16.5 fold vs AT.

For the sequence “AAGCATACGGAAGTTAAAGTGCGGATCATCTCTAGCCA / TGGCTAGAGATGATCCGCACTTTTTAACTTCCGTATGC [sense/ins+2T]”, the binding signal came out at 7.02 fold vs AT in data set [3] (setting [8]), 71.8 fold vs AT in data set [4], 3.37 fold vs AT in data set [5] and 16.9 fold vs AT in data set [6].

For “AAGCATACGGAAGTTAAAGTGCGGATCATCTCTAGCCA / TGGCTAGAGATGATCCGCACTTTTTTAACTTCCGTATGC [sense/ins+3T]”, the binding signal in data set [3] (variant of sense/AT perfect duplex) turned out to be 1.32 fold vs AT; in data set [4] it was 1 fold vs AT; in data set [5], 1.56 fold vs AT; in data set [6], 1.82 fold vs AT.
